According to publication doi:10.1101/611533:
No constants are given. Whether binding was seen depends on the method and setting. Binding seen in cells or lysates may run through a third protein. Some entries that bind do so weakly or less than the wild type. Sequences can lack the tags named with a protein.

Columns and labels:
[1] = target: T1, FLAG-UBP12 (Arabidopsis thaliana) (UniProt Q9FPT1); test: co-IP
T1 sequence: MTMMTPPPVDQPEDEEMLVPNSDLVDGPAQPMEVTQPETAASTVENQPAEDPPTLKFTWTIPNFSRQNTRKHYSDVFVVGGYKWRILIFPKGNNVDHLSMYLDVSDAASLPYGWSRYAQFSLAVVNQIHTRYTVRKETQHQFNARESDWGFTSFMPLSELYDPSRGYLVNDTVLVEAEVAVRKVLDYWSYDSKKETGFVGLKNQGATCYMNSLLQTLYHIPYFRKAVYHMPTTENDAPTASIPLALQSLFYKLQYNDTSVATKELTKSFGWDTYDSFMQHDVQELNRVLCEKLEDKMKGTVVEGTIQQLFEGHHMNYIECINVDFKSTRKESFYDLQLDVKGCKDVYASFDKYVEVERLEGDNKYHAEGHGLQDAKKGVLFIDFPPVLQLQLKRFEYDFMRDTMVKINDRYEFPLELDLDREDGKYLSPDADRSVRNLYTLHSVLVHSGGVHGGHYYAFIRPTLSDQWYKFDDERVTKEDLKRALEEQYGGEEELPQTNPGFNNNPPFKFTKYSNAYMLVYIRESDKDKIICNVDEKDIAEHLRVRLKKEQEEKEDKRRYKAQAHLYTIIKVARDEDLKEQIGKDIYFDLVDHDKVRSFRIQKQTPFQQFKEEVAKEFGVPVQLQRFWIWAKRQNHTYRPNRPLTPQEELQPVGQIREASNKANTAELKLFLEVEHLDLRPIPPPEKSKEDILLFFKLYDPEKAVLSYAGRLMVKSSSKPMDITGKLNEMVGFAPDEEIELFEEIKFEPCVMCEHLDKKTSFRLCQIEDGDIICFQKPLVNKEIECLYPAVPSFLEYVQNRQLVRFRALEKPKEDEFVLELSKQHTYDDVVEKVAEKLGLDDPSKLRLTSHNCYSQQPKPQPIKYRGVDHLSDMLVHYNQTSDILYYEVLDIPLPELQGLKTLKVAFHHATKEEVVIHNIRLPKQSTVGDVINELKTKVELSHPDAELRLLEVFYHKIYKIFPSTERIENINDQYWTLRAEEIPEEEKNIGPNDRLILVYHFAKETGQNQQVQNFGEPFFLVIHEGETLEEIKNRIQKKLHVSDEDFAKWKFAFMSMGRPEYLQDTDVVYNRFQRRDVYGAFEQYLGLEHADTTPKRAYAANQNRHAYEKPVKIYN

[2] = target: T2, FLAG-UBP13 (Arabidopsis thaliana) (UniProt Q84WU2); test: co-IP
T2 sequence: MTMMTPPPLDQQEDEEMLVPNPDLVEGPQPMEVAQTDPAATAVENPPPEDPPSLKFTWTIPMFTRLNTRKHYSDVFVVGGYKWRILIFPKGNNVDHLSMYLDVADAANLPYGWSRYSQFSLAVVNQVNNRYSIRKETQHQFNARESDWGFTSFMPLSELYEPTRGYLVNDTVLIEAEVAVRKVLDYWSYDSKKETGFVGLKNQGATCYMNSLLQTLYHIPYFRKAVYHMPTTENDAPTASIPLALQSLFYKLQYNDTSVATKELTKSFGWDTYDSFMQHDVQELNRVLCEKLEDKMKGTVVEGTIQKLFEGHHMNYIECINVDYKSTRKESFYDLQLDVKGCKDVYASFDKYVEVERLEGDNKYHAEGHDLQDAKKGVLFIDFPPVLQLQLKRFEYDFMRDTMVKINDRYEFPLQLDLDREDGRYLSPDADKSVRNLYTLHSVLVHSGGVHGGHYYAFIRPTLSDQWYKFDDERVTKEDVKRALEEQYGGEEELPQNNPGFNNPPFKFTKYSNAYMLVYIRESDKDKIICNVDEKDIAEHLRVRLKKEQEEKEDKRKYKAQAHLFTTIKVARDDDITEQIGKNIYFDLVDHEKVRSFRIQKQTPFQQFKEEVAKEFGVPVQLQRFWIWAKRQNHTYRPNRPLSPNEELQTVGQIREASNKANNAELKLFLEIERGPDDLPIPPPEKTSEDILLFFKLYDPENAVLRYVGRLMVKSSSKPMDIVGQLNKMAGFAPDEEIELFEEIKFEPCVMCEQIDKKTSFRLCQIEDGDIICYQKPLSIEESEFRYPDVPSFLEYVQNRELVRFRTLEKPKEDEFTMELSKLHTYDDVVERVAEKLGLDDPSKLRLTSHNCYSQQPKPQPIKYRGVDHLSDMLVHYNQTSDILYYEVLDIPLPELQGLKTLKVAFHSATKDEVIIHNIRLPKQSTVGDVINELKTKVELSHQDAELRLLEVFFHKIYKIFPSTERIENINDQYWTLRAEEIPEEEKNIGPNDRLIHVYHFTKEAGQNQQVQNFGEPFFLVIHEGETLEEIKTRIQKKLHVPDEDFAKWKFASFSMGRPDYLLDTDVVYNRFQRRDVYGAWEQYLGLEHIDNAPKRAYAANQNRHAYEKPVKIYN

binding [1]: binds | binding [2]: binds
B1: HA-GI (protein, UniProt Q9SQI2 1-1173)
chain: MASSSSSERWIDGLQFSSLLWPPPRDPQQHKDQVVAYVEYFGQFTSEQFPDDIAELVRHQYPSTEKRLLDDVLAMFVLHHPEHGHAVILPIISCLIDGSLVYSKEAHPFASFISLVCPSSENDYSEQWALACGEILRILTHYNRPIYKTEQQNGDTERNCLSKATTSGSPTSEPKAGSPTQHERKPLRPLSPWISDILLAAPLGIRSDYFRWCSGVMGKYAAGELKPPTIASRGSGKHPQLMPSTPRWAVANGAGVILSVCDDEVARYETATLTAVAVPALLLPPPTTSLDEHLVAGLPALEPYARLFHRYYAIATPSATQRLLLGLLEAPPSWAPDALDAAVQLVELLRAAEDYASGVRLPRNWMHLHFLRAIGIAMSMRAGVAADAAAALLFRILSQPALLFPPLSQVEGVEIQHAPIGGYSSNYRKQIEVPAAEATIEATAQGIASMLCAHGPEVEWRICTIWEAAYGLIPLNSSAVDLPEIIVATPLQPPILSWNLYIPLLKVLEYLPRGSPSEACLMKIFVATVETILSRTFPPESSRELTRKARSSFTTRSATKNLAMSELRAMVHALFLESCAGVELASRLLFVVLTVCVSHEAQSSGSKRPRSEYASTTENIEANQPVSNNQTANRKSRNVKGQGPVAAFDSYVLAAVCALACEVQLYPMISGGGNFSNSAVAGTITKPVKINGSSKEYGAGIDSAISHTRRILAILEALFSLKPSSVGTPWSYSSSEIVAAAMVAAHISELFRRSKALTHALSGLMRCKWDKEIHKRASSLYNLIDVHSKVVASIVDKAEPLEAYLKNTPVQKDSVTCLNWKQENTCASTTCFDTAVTSASRTEMNPRGNHKYARHSDEGSGRPSEKGIKDFLLDASDLANFLTADRLAGFYCGTQKLLRSVLAEKPELSFSVVSLLWHKLIAAPEIQPTAESTSAQQGWRQVVDALCNVVSATPAKAAAAVVLQAERELQPWIAKDDEEGQKMWKINQRIVKVLVELMRNHDRPESLVILASASDLLLRATDGMLVDGEACTLPQLELLEATARAIQPVLAWGPSGLAVVDGLSNLLKCRLPATIRCLSHPSAHVRALSTSVLRDIMNQSSIPIKVTPKLPTTEKNGMNSPSYRFFNAASIDWKADIQNCLNWEAHSLLSTTMPTQFLDTAARELGCTISLSQ
